The results in this text go back to PMC12153781.

Amino acid sequences for entries named in this document (tags omitted).
UniProt Q9UN81: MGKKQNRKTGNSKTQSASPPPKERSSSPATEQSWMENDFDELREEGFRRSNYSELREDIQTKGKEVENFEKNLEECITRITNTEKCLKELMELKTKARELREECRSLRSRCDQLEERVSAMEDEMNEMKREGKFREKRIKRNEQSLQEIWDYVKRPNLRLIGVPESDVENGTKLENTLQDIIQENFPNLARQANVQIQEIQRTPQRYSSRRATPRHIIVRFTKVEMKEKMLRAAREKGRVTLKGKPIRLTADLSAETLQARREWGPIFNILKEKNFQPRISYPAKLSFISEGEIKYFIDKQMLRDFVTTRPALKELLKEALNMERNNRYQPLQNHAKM
UniProt P45973: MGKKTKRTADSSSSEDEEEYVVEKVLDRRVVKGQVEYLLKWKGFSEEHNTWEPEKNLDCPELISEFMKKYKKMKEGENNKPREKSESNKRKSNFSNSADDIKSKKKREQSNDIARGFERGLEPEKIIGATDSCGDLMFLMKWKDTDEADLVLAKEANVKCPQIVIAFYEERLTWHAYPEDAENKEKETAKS

These are yes or no findings as the source states them, for the method shown. Binding seen in cells or lysates may run through a third protein. Some results given as binding are weak or reduced against the parent protein; the word gives no strength. For some assays here: Where a sequence is shown, tags or fusion partners need not be part of it.

Assay [1] concerns the target T1, SLFN11 (endogenous) (human (endogenous in 293FT)) (UniProt Q7Z7L1).
T1 sequence: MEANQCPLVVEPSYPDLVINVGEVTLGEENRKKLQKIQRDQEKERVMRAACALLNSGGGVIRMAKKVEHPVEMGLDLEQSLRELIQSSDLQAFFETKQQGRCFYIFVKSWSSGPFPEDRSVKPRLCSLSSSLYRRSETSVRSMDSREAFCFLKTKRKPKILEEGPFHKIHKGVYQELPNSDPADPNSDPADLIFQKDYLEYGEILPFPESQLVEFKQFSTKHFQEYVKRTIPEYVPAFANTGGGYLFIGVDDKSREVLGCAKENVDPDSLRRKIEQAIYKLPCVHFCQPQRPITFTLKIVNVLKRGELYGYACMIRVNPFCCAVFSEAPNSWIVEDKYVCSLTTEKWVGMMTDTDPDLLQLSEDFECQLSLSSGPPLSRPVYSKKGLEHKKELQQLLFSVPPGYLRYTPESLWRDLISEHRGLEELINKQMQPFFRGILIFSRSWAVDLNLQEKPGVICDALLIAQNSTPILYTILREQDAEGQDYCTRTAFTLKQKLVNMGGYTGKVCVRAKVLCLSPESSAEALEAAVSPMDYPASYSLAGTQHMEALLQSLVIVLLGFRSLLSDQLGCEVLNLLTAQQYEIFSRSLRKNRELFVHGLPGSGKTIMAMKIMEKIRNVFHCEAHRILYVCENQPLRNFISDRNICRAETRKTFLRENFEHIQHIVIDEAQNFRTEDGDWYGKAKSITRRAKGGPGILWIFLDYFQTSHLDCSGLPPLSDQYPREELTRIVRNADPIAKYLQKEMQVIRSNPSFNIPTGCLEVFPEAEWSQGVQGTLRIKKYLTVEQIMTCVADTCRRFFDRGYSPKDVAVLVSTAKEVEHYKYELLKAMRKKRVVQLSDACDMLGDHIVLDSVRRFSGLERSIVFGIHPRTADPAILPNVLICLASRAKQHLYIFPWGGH
In words: co-IP; endogenous proteins in 293FT cells; immunoprecipitated with anti-SLFN11 antibodies, immunoblot for the indicated proteins.

For assay [2], the target named is Myc-tagged LINE-1 ORF1p (human) (UniProt Q9UN81). In words: co-IP; Myc-ORF1p co-expressed with Flag-SLFN11 or Flag-MOV10 in 293T cells; NETN buffer (20 mM Tris-HCl pH 8.0, 100 mM NaCl, 1 mM EDTA, 0.5% NP-40); lysates treated with RNase A (100 ug/mL) or left untreated; immunoprecipitated with anti-Myc (legend; methods say anti-Flag M2), immunoblot.

For “heterochromatin protein 1α (HP1α/CBX5) (from UniProt P45973 1-191)”, the binding result in assay [1] is recorded as “binds”.

B1: Flag-tagged SLFN11 (protein, UniProt Q7Z7L1 1-901)
chain: MEANQCPLVVEPSYPDLVINVGEVTLGEENRKKLQKIQRDQEKERVMRAACALLNSGGGVIRMAKKVEHPVEMGLDLEQSLRELIQSSDLQAFFETKQQGRCFYIFVKSWSSGPFPEDRSVKPRLCSLSSSLYRRSETSVRSMDSREAFCFLKTKRKPKILEEGPFHKIHKGVYQELPNSDPADPNSDPADLIFQKDYLEYGEILPFPESQLVEFKQFSTKHFQEYVKRTIPEYVPAFANTGGGYLFIGVDDKSREVLGCAKENVDPDSLRRKIEQAIYKLPCVHFCQPQRPITFTLKIVNVLKRGELYGYACMIRVNPFCCAVFSEAPNSWIVEDKYVCSLTTEKWVGMMTDTDPDLLQLSEDFECQLSLSSGPPLSRPVYSKKGLEHKKELQQLLFSVPPGYLRYTPESLWRDLISEHRGLEELINKQMQPFFRGILIFSRSWAVDLNLQEKPGVICDALLIAQNSTPILYTILREQDAEGQDYCTRTAFTLKQKLVNMGGYTGKVCVRAKVLCLSPESSAEALEAAVSPMDYPASYSLAGTQHMEALLQSLVIVLLGFRSLLSDQLGCEVLNLLTAQQYEIFSRSLRKNRELFVHGLPGSGKTIMAMKIMEKIRNVFHCEAHRILYVCENQPLRNFISDRNICRAETRKTFLRENFEHIQHIVIDEAQNFRTEDGDWYGKAKSITRRAKGGPGILWIFLDYFQTSHLDCSGLPPLSDQYPREELTRIVRNADPIAKYLQKEMQVIRSNPSFNIPTGCLEVFPEAEWSQGVQGTLRIKKYLTVEQIMTCVADTCRRFFDRGYSPKDVAVLVSTAKEVEHYKYELLKAMRKKRVVQLSDACDMLGDHIVLDSVRRFSGLERSIVFGIHPRTADPAILPNVLICLASRAKQHLYIFPWGGH
Take B1: in assay [2], the binding entry is listed as “no binding”.
